Measured values: the supplement of paper PMC12067093, “Discovery and optimisation of a covalent ligand for TRIM25 and its application to targeted protein ubiquitination” (Chemical Science, 2025)
Some of the results follow.

Sequences of proteins named here, by UniProt entry; tags and fusion partners are left off. A change or cut given only in a name is not applied to a line headed by its entry.
UniProt P23921: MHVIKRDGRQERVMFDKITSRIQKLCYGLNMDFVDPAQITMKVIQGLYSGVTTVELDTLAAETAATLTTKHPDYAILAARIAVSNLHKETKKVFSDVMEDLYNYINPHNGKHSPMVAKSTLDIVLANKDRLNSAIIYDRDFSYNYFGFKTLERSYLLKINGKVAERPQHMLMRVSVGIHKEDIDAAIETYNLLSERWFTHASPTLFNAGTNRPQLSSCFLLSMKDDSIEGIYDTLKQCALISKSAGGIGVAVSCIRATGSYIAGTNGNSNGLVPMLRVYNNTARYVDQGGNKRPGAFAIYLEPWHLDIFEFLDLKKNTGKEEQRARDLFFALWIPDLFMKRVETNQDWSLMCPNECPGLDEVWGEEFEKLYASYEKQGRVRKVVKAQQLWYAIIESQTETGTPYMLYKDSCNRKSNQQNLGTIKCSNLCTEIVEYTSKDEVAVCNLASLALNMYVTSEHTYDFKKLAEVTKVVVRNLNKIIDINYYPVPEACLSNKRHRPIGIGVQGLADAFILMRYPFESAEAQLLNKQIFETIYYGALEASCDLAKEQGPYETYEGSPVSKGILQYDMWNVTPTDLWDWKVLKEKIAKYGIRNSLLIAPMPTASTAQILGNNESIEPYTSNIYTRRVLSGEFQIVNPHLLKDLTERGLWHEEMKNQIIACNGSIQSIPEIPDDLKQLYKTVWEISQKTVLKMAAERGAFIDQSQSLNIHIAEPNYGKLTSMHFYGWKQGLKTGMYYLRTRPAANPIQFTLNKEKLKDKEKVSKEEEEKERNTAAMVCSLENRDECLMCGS
UniProt Q9Y265, whole entry, looked up: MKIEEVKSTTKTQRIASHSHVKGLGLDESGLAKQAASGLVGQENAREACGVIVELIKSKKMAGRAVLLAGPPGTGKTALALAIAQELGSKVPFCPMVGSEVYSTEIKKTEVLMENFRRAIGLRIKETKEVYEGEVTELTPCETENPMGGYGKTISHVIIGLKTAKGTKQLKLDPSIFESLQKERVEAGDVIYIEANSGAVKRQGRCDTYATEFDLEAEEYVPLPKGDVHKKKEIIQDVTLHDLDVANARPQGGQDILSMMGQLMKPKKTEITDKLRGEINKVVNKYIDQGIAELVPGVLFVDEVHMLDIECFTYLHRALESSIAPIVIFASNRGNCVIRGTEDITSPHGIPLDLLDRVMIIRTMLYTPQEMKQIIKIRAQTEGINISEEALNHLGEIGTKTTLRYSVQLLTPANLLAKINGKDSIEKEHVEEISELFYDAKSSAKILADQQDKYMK
UniProt P19793: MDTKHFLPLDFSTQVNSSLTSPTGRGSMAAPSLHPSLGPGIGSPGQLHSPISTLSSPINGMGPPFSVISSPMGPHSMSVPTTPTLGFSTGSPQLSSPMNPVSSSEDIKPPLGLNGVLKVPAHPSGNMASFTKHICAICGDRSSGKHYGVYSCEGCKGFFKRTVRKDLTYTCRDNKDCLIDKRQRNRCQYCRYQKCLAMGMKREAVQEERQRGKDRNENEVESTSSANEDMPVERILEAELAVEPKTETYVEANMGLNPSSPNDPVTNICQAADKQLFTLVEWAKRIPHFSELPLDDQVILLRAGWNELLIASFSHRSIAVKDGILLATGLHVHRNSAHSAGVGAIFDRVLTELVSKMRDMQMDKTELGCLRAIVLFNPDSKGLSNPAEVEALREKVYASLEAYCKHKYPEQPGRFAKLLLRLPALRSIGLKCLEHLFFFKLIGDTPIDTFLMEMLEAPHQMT
UniProt Q13761, whole entry: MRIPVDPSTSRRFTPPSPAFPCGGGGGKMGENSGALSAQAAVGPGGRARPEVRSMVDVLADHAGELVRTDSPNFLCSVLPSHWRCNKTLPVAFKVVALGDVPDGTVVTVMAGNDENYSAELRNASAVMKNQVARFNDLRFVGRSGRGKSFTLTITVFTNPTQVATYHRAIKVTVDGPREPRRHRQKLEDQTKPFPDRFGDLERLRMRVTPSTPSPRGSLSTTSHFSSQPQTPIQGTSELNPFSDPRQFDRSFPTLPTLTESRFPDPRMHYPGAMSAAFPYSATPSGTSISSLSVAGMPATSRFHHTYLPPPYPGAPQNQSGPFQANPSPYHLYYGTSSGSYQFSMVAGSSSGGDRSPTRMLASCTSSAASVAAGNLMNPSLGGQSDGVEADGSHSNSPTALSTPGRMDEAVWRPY
UniProt Q8N122, whole entry, looked up: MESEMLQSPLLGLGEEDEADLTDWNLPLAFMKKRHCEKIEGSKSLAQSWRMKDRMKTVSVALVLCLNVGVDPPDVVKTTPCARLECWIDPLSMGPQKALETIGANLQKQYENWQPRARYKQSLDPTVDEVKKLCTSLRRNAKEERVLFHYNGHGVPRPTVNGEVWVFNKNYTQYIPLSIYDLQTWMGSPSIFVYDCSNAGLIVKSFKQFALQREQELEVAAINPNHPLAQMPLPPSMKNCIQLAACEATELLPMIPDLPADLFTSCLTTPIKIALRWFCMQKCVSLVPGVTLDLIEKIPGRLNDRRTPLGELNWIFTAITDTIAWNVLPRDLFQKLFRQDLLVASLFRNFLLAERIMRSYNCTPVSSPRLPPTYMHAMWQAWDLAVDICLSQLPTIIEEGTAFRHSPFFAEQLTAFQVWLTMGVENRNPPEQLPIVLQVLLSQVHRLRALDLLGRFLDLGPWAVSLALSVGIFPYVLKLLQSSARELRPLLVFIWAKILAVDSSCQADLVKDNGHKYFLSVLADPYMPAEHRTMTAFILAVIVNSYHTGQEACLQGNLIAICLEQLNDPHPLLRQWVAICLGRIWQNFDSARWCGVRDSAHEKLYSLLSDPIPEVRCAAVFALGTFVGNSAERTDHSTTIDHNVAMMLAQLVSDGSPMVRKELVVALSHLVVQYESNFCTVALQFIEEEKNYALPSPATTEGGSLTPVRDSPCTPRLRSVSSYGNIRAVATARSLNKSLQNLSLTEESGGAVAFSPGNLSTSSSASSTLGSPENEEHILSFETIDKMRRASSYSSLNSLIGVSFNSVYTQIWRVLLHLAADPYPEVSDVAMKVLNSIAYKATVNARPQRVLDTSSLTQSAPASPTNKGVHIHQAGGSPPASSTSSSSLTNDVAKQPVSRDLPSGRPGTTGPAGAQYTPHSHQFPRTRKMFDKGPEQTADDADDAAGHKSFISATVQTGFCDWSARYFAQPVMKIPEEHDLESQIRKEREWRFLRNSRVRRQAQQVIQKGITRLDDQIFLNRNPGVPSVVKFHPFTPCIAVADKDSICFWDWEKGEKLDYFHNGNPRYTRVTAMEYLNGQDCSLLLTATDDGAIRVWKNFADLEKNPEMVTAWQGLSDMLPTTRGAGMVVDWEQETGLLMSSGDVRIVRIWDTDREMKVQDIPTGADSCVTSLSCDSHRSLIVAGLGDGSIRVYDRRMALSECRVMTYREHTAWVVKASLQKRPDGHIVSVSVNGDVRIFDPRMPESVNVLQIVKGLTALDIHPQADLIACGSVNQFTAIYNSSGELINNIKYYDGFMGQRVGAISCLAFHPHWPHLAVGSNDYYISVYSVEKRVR
UniProt Q8WWV3: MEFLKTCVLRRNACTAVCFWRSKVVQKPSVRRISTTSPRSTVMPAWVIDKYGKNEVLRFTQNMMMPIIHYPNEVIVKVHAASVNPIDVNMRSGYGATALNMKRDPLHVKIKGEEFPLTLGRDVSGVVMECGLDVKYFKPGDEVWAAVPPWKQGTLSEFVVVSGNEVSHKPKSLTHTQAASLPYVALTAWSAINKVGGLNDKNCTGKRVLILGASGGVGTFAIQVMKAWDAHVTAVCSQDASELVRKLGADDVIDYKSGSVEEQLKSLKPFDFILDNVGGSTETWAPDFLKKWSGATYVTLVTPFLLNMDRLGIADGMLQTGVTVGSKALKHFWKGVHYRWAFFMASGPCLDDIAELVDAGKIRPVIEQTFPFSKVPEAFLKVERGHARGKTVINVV
UniProt Q96T51: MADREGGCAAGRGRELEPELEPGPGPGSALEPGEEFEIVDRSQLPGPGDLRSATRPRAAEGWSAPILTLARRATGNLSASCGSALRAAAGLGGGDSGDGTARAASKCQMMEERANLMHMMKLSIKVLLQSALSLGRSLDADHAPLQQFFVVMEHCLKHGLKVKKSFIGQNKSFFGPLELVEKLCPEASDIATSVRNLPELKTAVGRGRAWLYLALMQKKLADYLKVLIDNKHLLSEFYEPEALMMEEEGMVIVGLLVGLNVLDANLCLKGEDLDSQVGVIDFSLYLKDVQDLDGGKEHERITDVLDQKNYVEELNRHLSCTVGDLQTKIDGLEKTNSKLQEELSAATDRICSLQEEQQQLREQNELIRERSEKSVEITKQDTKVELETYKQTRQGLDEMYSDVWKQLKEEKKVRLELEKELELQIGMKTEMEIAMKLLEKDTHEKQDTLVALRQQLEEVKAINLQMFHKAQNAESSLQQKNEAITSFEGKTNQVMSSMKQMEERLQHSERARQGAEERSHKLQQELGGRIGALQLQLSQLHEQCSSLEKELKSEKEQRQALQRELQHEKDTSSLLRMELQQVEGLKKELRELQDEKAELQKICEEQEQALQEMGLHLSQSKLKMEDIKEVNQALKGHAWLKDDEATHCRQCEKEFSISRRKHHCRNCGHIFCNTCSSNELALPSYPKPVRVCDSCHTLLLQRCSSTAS
UniProt Q9Y512: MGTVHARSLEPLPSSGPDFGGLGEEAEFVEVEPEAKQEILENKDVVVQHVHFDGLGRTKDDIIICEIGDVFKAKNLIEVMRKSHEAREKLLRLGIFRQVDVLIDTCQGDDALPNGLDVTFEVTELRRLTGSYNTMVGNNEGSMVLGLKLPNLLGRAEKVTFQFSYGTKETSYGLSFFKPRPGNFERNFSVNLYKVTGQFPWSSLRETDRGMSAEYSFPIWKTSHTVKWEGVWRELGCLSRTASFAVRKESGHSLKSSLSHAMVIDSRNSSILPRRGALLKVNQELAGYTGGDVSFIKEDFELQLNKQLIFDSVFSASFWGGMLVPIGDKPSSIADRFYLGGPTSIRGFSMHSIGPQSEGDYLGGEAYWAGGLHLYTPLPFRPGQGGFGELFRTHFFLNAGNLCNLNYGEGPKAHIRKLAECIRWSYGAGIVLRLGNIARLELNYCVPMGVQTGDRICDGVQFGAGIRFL
UniProt Q5JTH9: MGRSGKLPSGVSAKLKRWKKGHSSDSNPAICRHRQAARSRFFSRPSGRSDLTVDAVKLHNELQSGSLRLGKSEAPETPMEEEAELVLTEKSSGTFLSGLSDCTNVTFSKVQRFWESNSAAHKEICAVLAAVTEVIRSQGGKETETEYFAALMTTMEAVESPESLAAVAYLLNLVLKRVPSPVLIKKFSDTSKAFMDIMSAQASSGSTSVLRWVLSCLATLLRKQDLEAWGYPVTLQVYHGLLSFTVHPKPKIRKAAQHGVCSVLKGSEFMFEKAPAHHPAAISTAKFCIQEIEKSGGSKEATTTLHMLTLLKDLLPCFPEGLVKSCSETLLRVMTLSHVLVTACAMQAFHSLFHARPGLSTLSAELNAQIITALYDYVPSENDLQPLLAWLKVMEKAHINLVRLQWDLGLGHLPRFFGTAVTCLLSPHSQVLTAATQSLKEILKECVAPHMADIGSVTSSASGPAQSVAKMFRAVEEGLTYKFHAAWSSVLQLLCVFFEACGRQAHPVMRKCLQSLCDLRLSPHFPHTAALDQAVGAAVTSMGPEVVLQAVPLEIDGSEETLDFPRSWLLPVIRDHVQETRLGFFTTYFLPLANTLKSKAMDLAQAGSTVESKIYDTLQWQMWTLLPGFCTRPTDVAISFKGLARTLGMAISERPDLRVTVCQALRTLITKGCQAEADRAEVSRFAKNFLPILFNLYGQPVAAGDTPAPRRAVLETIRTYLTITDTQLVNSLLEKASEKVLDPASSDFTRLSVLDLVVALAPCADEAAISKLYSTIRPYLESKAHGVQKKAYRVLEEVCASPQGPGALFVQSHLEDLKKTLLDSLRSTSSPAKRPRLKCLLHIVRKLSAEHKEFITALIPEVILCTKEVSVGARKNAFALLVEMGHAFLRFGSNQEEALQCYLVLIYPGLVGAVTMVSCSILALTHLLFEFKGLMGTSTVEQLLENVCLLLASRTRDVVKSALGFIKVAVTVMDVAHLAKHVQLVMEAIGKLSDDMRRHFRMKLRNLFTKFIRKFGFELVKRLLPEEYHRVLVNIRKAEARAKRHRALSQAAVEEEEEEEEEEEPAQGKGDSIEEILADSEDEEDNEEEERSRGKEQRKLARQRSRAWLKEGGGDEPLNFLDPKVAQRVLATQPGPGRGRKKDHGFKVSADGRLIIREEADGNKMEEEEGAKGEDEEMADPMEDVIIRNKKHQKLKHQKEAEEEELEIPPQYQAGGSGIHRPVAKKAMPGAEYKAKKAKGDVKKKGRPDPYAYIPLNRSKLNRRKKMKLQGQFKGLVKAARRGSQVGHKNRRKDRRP

Compound: Cc1cc(ccc1-c1ccccc1)C(=O)N1CCCN(CC1)C(=O)CCl [compound 10]
Assay: probe-labelled cysteine peptide fold change vs DMSO (competition) (log2 fold change); higher = less target engagement (more negative = stronger competition)
Details: THP-1, incubation time: 4 h
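Also: competitive profiling in live THP-1 cells: cysteine peptides tagged with an iodoacetamide desthiobiotin (IA-DTB) probe, intensity after compound treatment relative to DMSO-treated cells.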

SAMHD1_Q9Y3Z3_177_FEHSLGVGYLAGCLVHALGEK (UniProt Q9Y3Z3)
probe-labelled cysteine peptide fold change (10 µM): 0.0486
probe-labelled cysteine peptide fold change (50 µM): 0.122

RRP9_O43818_296+297_ECCVTAGGR (UniProt O43818)
probe-labelled cysteine peptide fold change (10 µM): -0.103
probe-labelled cysteine peptide fold change (50 µM): -0.552

RTF1_Q92541_599_RQCKPTIVSNSR (UniProt Q92541)
probe-labelled cysteine peptide fold change (10 µM): -0.271
probe-labelled cysteine peptide fold change (50 µM): -0.377

RPS12_P25398_108_VVGCSCVVVK (UniProt P25398)
probe-labelled cysteine peptide fold change (10 µM): 0.151
probe-labelled cysteine peptide fold change (50 µM): 0.157

RRM1_P23921_492_IIDINYYPVPEACLSNK (UniProt P23921)
probe-labelled cysteine peptide fold change (10 µM): 0.0914
probe-labelled cysteine peptide fold change (50 µM): -0.0623

RSBN1L_Q6PCB5_595_AVHCGEWPDQPR (UniProt Q6PCB5)
probe-labelled cysteine peptide fold change (10 µM): -0.0881
probe-labelled cysteine peptide fold change (50 µM): -0.128

RUSC1_Q9BVN2_532_LSPDVGHLVLTTLCPALHALVADGLK (UniProt Q9BVN2)
probe-labelled cysteine peptide fold change (10 µM): -0.0753
probe-labelled cysteine peptide fold change (50 µM): 0.106

RUVBL1_Q9Y265_141_EVYEGEVTELTPCETENPMGGYGK (UniProt Q9Y265)
probe-labelled cysteine peptide fold change (10 µM): -0.117
probe-labelled cysteine peptide fold change (50 µM): 0.00274

RRP8_O43159_317+320_QRPASLVVADFGCGDCR (UniProt O43159)
probe-labelled cysteine peptide fold change (10 µM): -0.0913
probe-labelled cysteine peptide fold change (50 µM): -0.409

RPS12_P25398_106+108_VVGCSCVVVK (UniProt P25398)
probe-labelled cysteine peptide fold change (10 µM): 0.28
probe-labelled cysteine peptide fold change (50 µM): -0.285

RXRA_P19793_171_DLTYTCR (UniProt P19793)
probe-labelled cysteine peptide fold change (10 µM): -0.079
probe-labelled cysteine peptide fold change (50 µM): -0.329

RPS28_P62857_27_TGSQGQCTQVRVEFMDDTSR (UniProt P62857)
probe-labelled cysteine peptide fold change (10 µM): -0.0524
probe-labelled cysteine peptide fold change (50 µM): -0.8

RPS11_P62280_60_CPFTGNVSIR (UniProt P62280)
probe-labelled cysteine peptide fold change (10 µM): -0.0938
probe-labelled cysteine peptide fold change (50 µM): -0.00335

SAMHD1_Q9Y3Z3_177_QLGGGYYVFPGASHNRFEHSLGVGYLAGCLVHALGEK (UniProt Q9Y3Z3)
probe-labelled cysteine peptide fold change (10 µM): -0.00777
probe-labelled cysteine peptide fold change (50 µM): 0.0217

RUNX3_Q13761_22_RFTPPSPAFPCGGGGGK (UniProt Q13761)
probe-labelled cysteine peptide fold change (10 µM): 0.0563
probe-labelled cysteine peptide fold change (50 µM): -0.757

RPS3A_P61247_96_NCLTNFHGMDLTR (UniProt P61247)
probe-labelled cysteine peptide fold change (10 µM): -0.125
probe-labelled cysteine peptide fold change (50 µM): 0.0144

RPTOR_Q8N122_1168+1174_VQDIPTGADSCVTSLSCDSHR (UniProt Q8N122)
probe-labelled cysteine peptide fold change (10 µM): -0.104
probe-labelled cysteine peptide fold change (50 µM): 0.0969

SACS_Q9NZJ4_2255_GNSFKPETMFAATDLYTAEHQDIVCLLQPILNENSHSFR (UniProt Q9NZJ4)
probe-labelled cysteine peptide fold change (10 µM): 0.086
probe-labelled cysteine peptide fold change (50 µM): -0.196

RUVBL1_Q9Y265_206_CDTYATEFDLEAEEYVPLPK (UniProt Q9Y265)
probe-labelled cysteine peptide fold change (10 µM): 0.167
probe-labelled cysteine peptide fold change (50 µM): 0.0823

RPTOR_Q8N122_1047_DSICFWDWEK (UniProt Q8N122)
probe-labelled cysteine peptide fold change (10 µM): 0.288
probe-labelled cysteine peptide fold change (50 µM): 0.282

RPS20_P60866_70_KTPCGEGSK (UniProt P60866)
probe-labelled cysteine peptide fold change (10 µM): 0.0129
probe-labelled cysteine peptide fold change (50 µM): 0.0421

SAFB2_Q14151_672_ERLQLECQR (UniProt Q14151)
probe-labelled cysteine peptide fold change (10 µM): -0.167
probe-labelled cysteine peptide fold change (50 µM): -0.742

RPS8_P62241_100_NCIVLIDSTPYR (UniProt P62241)
probe-labelled cysteine peptide fold change (10 µM): 0.15
probe-labelled cysteine peptide fold change (50 µM): 0.167

RPS3A_P61247_111_MCSMVK (UniProt P61247)
probe-labelled cysteine peptide fold change (10 µM): -0.281
probe-labelled cysteine peptide fold change (50 µM): 0.0513

RTN4IP1_Q8WWV3_130_DVSGVVMECGLDVK (UniProt Q8WWV3)
probe-labelled cysteine peptide fold change (10 µM): 0.0949
probe-labelled cysteine peptide fold change (50 µM): 0.461

RRM1_P23921_444_DEVAVCNLASLALNMYVTSEHTYDFKK (UniProt P23921)
probe-labelled cysteine peptide fold change (10 µM): 0.31
probe-labelled cysteine peptide fold change (50 µM): 0.109

RXRA_P19793_404_VYASLEAYCK (UniProt P19793)
probe-labelled cysteine peptide fold change (10 µM): -0.0874
probe-labelled cysteine peptide fold change (50 µM): -0.0238

RUFY1_Q96T51_81_RATGNLSASCGSALR (UniProt Q96T51)
probe-labelled cysteine peptide fold change (10 µM): -0.241
probe-labelled cysteine peptide fold change (50 µM): -0.452

RRM1_P23921_492_IIDINYYPVPEACLSNKR (UniProt P23921)
probe-labelled cysteine peptide fold change (10 µM): -0.236
probe-labelled cysteine peptide fold change (50 µM): -0.801

RPS29_P62273_39_KYGLNMCR (UniProt P62273)
probe-labelled cysteine peptide fold change (10 µM): -0.0348
probe-labelled cysteine peptide fold change (50 µM): -0.628

RPS6_P62753_12_KLNISFPATGCQK (UniProt P62753)
probe-labelled cysteine peptide fold change (10 µM): 0.00268
probe-labelled cysteine peptide fold change (50 µM): 1.18

RPS5_P46782_155_RVNQAIWLLCTGAR (UniProt P46782)
probe-labelled cysteine peptide fold change (10 µM): -0.131
probe-labelled cysteine peptide fold change (50 µM): -0.0669

SAMHD1_Q9Y3Z3_266_PVMEQYGLIPEEDICFIK (UniProt Q9Y3Z3)
probe-labelled cysteine peptide fold change (10 µM): -0.123
probe-labelled cysteine peptide fold change (50 µM): 0.34

RTCB_Q9Y3I0_485_NVTDVVNTCHDAGISK (UniProt Q9Y3I0)
probe-labelled cysteine peptide fold change (10 µM): -0.261
probe-labelled cysteine peptide fold change (50 µM): 0.000605

RUFY1_Q96T51_692_VCDSCHTLLLQR (UniProt Q96T51)
probe-labelled cysteine peptide fold change (10 µM): 0.0636
probe-labelled cysteine peptide fold change (50 µM): -0.325

SAMM50_Q9Y512_237_ELGCLSR (UniProt Q9Y512)
probe-labelled cysteine peptide fold change (10 µM): -0.0776
probe-labelled cysteine peptide fold change (50 µM): -0.106

RRP12_Q5JTH9_673_GCQAEADRAEVSR (UniProt Q5JTH9)
probe-labelled cysteine peptide fold change (10 µM): -0.0456
probe-labelled cysteine peptide fold change (50 µM): 0.0518

RPS27A_P62979_121_RECPSDECGAGVFMASHFDR (UniProt P62979)
probe-labelled cysteine peptide fold change (10 µM): 0.0999
probe-labelled cysteine peptide fold change (50 µM): -0.173
